The shares of active, inactive and inconclusive entries below differ from those in the screen. A potency beside an inconclusive call is a rough fit, not a confirmed value. Activity calls are given as the source filed them. The call rests on the fitted dose curve; in most records, active means well fitted cell-killing curve with a large enough effect; inconclusive means small, poorly fitted or top-dose-only effect, or effect the other way; inactive means no such curve, though single readings can be large or run the other way.
Assay: Quantitative High-Throughput drug screen in 47 multiple myeloma cell lines against the NCATS MIPE library collection: ARD_JJKsccE7 cell viability assay (AID 1918929)
Details: ARD myeloma cell line viability, CellTiter-Glo, 48 h; series mostly up to 45.8 µM
Excerpt: PI: Beverly A. Mock Ph.D.
Laboratory of Cancer Biology and Genetics,
Center for Cancer Research, National Cancer Institute,
National Institute of Health, Bethesda, Maryland
Drug resistance and disease progression are common in multiple myeloma (MM) patients, underscoring the need for new therapeutic combinations. […] We hypothesized that effective combinations would reduce MYC expression and enhance p16 activity. […] These preclinical data identify potentially useful drug combinations for evaluation in drug-resistant MM and reveal potential mechanisms of combined drug sensitivity.
Described herein is the primary MIPE qHTS used to cherrypick compounds. Validated compounds were then further tested for potential synergistic activiy.
[1] Peat TJ, Gaikwad SM, Dubois W, Gyabaah-Kessie N, Zhang S, Gorjifard S, Phyo Z, Andres M, Hughitt VK, Simpson RM, Miller MA, Girvin AT, Taylor A, Williams D, D'Antonio N, Zhang Y, Rajagopalan A, Flietner E, Wilson K, Zhang X, Shinn P, Klumpp-Thomas C, McKnight C, Itkin Z, Chen L, Kazandijian D, Zhang J, Michalowski AM, Simmons JK, Keats J, Thomas CJ, Mock BA. Drug combinations identified by high-throughput screening promote cell cycle transition and upregulate Smad pathways in myeloma. Cancer Lett. 2023 Aug 1;568:216284. doi: 10.1016/j.canlet.2023.216284. Epub 2023 Jun 24. PMID: 37356470; PMCID: PMC10408729.
SEQUENCE No. (e.g., 1, 2, 3, etc.); […] (e.g., Cells, Incubation, Reagent, etc.); VALUE and DESCRIPTION.
1; Cells; 5 uL; white, solid bottom 1536-well Greiner assay plate.
2; Compounds; 23 nL; Kalypsis pin tool (Wako USA) equipped with a 1536-well pin head to transfer to the assay plates.
3; Incubation; 48 hours; 37C incubation.
4; Reagent;5uL; CellTiter Glo (Promega).
5; Detector; 425V; Luminescence; Viewlux PerkinElmer.
NOTES (numbers refer to Sequence numbers above)
1. The cell-based screening methods employed in this study were like those previously published. Briefly, the corresponding myeloma cell lines were screened in 1,536-well plates with 500 cells, 5-uL per well for inhibition of cell viability (assessed by measuring ATP levels with CellTiterGlo).
2. NCATS MIPE 4.0 library of approved and investigational drugs were added using the Kalypsis pin tool. Wells treated with DMSO only for 100% viability and media only wells for 0% viability were used as controls.
3. The assay plates were covered and incubated for 48 hours in a 37C, 5% CO2 incubator with controlled humidity.
4. After 48 hours, CellTilter-GloTM luminescent substrate mix (Promega) reagent was added to the assay plate and plates we incubated for 5 min at room temperature.
5. Signal was measured as median relative luminescence units on a ViewLux (PerkinElmer) multiplate reader.
[1] Heske CM, Davis MI, Baumgart JT, Wilson K, Gormally MV, Chen L, Zhang X, Ceribelli M, Duveau DY, Guha R, Ferrer M, Arnaldez FI, Ji J, Tran HL, Zhang Y, Mendoza A, Helman LJ, Thomas CJ. Matrix Screen Identifies Synergistic Combination of PARP Inhibitors and Nicotinamide Phosphoribosyltransferase (NAMPT) Inhibitors in Ewing Sarcoma. Clin Cancer Res. 2017 Dec 1;23(23):7301-7311. doi: 10.1158/1078-0432.CCR-17-1121. Epub 2017 Sep 12. PMID: 28899971; PMCID: PMC6636827.
With `COc1ccc([C@@H]2CNC(=O)C2)cc1OC1CCCC1` the Potency was “inactive”. With `Nc1ccc(S(=O)(=O)Nc2ccnn2-c2ccccc2)cc1` the Potency was “inactive”. With `CCC(C)(Oc1ccc(C2(c3ccc(OC(C)(CC)C(=O)O)cc3)CCCCC2)cc1)C(=O)O` (stereo unspecified) the Potency was “inactive”. In the case of `Nc1ccn(C[C@@H](CO)OCP(=O)(O)O)c(=O)n1`, the Potency is reported as inconclusive: 72.4 nM [cytotoxic, full curve, poor fit]. In the case of `CNC(=O)CN1CCC(Oc2cc3c(Nc4cccc(Cl)c4F)ncnc3cc2OC)CC1`, the Potency is reported as active: 1 nM. For `CC(C)(C)C(=O)OCOP(=O)(COCCn1cnc2c(N)ncnc21)OCOC(=O)C(C)(C)C`, the Potency was active: 5900 nM. In the case of `CCCCCCCCCCCCc1ccc(S(=O)(=O)Nc2nncs2)cc1`, the Potency is reported as inconclusive: 2960 nM [cytotoxic, partial curve, poor fit]. In the case of `COc1cc([C@@H]2c3cc4c(cc3[C@@H](O[C@@H]3O[C@@H]5CO[C@@H](C)O[C@@H]5[C@H](O)[C@@H]3O)[C@H]3COC(=O)[C@H]23)OCO4)cc(OC)c1O`, the Potency is reported as “inactive”. With `C[C@H]1C[C@H]2[C@@H]3CCC4=CC(=O)C=C[C@]4(C)[C@@H]3C(=O)C[C@]2(C)[C@@]1(O)C(=O)CO` the Potency was “inactive”. For `CN1c2cc(O)c(N=NC(N)=O)cc2CC1S(=O)(=O)O` (stereo unspecified), the Potency was active: 1.2 nM. For `CCn1cc(C(=O)O)c(=O)c2cc(F)c(N3CCNCC3)cc21`, the Potency was “inactive”. For `CN1[C@@H]2CCC[C@@H]1CC(NC(=O)c1nn(C)c3ccccc13)C2` (stereo partly specified), the Potency was inconclusive: 209 nM [rising, full curve, poor fit]. With `Nc1nc(=O)n([C@H]2C[C@H](O)[C@@H](CO)O2)cc1F` the Potency was “inactive”. With `OC(CCN1CCCCC1)(c1ccccc1)C1CC2C=CC1C2` (stereo unspecified) the Potency was inconclusive: 1 nM. With `COc1cc([C@@H]2c3cc4c(cc3[C@@H](O[C@@H]3O[C@@H]5CO[C@@H](c6cccs6)O[C@@H]5[C@H](O)[C@@H]3O)[C@H]3COC(=O)[C@H]23)OCO4)cc(OC)c1O` the Potency was inconclusive: 8330 nM [cytotoxic, partial curve]. For `O=C(O)CO.[NH2-].[NH2-].[Pt+2]`, the Potency was inconclusive: 20.9 nM [rising, full curve, poor fit]. For `CC(=O)N[C@H]1[C@@H]([C@H](O)[C@H](O)CO)OC(C(=O)O)=C[C@@H]1N=C(N)N`, the Potency was inconclusive: 1 nM [cytotoxic]. With `COc1c(N2C[C@@H]3CCCN[C@H]3C2)c(F)cc2c(=O)c(C(=O)O)cn(C3CC3)c12` the Potency was inconclusive: 1.9 nM [rising, full curve, poor fit]. With `Cc1cn2cc(C(=O)N(C)CCO)cc(N[C@@H]3CCOc4cccc(C)c43)c2n1` the Potency was inconclusive: 7430 nM [cytotoxic, partial curve, poor fit]. In the case of `C=C(C)[C@@H]1CC[C@]2(C(=O)O)CC[C@]3(C)[C@H](CC[C@@H]4[C@@]5(C)CC[C@H](O)C(C)(C)[C@@H]5CC[C@]43C)[C@@H]12`, the Potency is reported as “inactive”. In the case of `CCCCNc1cc(C(=O)O)cc(S(N)(=O)=O)c1Oc1ccccc1`, the Potency is reported as inconclusive: 148 nM [rising, full curve].
Potency means the concentration at half of the fitted maximal effect.
